Experimental data from US10588921B2, “Drug for the treatment of cholesterol accumulation disorders” (NATIONAL UNIVERSITY CORPORATION KUMAMOTO UNIVERSITY, priority 2013, dated 2020).

Tested on: NPC-derived HLCs
Assay: Microarray, cluster and PCA analysis of HLCs treated with HPCDs
Format: cell-based, human
Conditions: FIG. 25, 26

Q: 2-hydroxypropyl-γ-cyclodextrin [HPGCD] was tested. Which “mechanism of action by cluster analysis and PCA” value did it give?
A: acts with the mechanism different from HPBCD
